From US20020137662

By UniProt entry, the sequences of proteins in these tests, tags left out. Where a name states a change or a piece, a line headed by the entry shows the natural chain unless it says otherwise.
UniProt P42003: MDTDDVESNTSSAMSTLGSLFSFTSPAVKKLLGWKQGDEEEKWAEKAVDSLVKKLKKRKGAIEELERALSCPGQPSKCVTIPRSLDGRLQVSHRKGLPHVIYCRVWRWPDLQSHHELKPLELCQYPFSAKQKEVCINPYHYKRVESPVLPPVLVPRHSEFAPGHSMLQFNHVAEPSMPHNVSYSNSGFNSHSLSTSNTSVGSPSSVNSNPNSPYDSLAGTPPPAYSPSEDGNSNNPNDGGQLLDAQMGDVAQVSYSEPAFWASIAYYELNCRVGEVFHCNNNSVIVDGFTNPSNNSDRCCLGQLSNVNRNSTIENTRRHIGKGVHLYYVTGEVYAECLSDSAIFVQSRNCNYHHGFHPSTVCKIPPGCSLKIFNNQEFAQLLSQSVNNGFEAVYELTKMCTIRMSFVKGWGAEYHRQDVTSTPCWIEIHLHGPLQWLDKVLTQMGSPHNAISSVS

Key:
[1] = molecular target: T1, Medea (UniProt O62609); assay: activity in cells; conditions: Mad plus Medea activate LRR-lacZ reporter in S2 cells; effect of dCtBP inhibition tested; protein in cells; only the site is given
T1 sequence (looked up, limits assumed): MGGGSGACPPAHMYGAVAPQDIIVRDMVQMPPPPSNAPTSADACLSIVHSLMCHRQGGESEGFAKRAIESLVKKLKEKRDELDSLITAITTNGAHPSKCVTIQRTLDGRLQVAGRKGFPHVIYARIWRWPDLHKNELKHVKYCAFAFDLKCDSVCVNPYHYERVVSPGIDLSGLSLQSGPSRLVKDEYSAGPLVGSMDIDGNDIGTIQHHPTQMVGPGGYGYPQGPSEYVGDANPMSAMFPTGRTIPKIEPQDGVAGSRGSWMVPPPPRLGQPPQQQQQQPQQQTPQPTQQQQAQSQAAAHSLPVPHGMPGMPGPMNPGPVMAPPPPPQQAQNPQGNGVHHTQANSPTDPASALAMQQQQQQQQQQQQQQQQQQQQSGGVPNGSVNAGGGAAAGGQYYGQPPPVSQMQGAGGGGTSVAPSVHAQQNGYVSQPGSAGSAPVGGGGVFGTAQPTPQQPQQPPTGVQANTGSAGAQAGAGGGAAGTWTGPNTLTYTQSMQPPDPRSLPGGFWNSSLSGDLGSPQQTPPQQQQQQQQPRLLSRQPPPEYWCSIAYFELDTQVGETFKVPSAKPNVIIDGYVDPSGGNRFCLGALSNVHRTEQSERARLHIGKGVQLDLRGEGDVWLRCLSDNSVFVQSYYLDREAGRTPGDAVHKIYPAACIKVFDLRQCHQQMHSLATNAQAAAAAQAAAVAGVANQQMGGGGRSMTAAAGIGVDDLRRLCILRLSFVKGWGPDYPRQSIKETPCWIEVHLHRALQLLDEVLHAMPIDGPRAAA

[2] = molecular target: Mad (UniProt P42003); assay: activity in cells; conditions: Mad plus Medea activate LRR-lacZ reporter in S2 cells; effect of dCtBP inhibition tested; protein in cells; only the site is given

Sequence: AGACGTCTGTCT (double strand) [LRR Smad box repeat]
- activity on this sequence [1]: active
- activity on this sequence [2]: active

For some assays here: Protein sequences can lack the tags named with them.
